Here are results for one molecule from patent US20240290419A1 (KATHOLIEKE UNIVERSITEIT LEUVEN, published 2024).

No constants are given. Whether binding was seen depends on the method and setting. Some results given as binding are weak or reduced against the parent protein; the word gives no strength.

The target of assay [1] is S6BE-3HH. Nature of the assay: dialysis to 50 mM Na citrate-citric acid pH 4.0; self-assembly into crystals.
The target in assay [2] is S6BE-3HH. Nature of the assay: AFM of 2D arrays on mica, 10:1 Cu(II):protein, 20 mM MES pH 5.6; self-association.

B1: S6BE-3HH (protein)
chain: MLIYAVGGYDGNTHLNSVEAYDPERNEWSLVAPLSTRRSGVGVAVLNGLIYAVGGYDGNTHLNSVEAYDPHHNEWSLVAPLSTRRSGVGVAVLNGLIYAVGGYDGNTHLNSVEAYDPERNEWSLVAPLSTRRSGVGVAVLNGLIYAVGGYDGNTHLNSVEAYDPHHNEWSLVAPLSTRRSGVGVAVLNGLIYAVGGYDGNTHLNSVEAYDPERNEWSLVAPLSTRRSGVGVAVLNGLIYAVGGYDGNTHLNSVEAYDPHHNEWSLVAPLSTRRSGVGVAVLNG
As for B1, the binding entry in assay [1] and in assay [2] was “binds” throughout.
